Test results taken from paper PMC3897949.
These are yes or no findings as the source states them, for the method shown. Some binding calls cover weakened binding; strength is not graded here. For some of these results: Sequences can lack the tags named with a protein.

Columns and labels:
[1] = target: shortened PCAF HAT domain (amino acids 496-658) (human) (UniProt Q92831); assay: cross-linking; DSS cross-linking of the shortened HAT domain (496-658) without further mutations; data not shown; both purified
[2] = target: T1, PCAF HAT domain (amino acids 493-658), His-tagged (human), Q92831; assay: crystal structure; PCAF HAT domain with acetyl-CoA; crystals from 0.2 M lithium sulfate, 0.1 M HEPES pH7.4, 1.2 M ammonium sulfate, 10 mM trimethylamine HCl; space group P43, four HAT domains in one asymmetric unit; 2.31 Å; both purified; settings: remark: other sources report otherwise
[3] = target: MBP-PCAF HAT domain (amino acids 493-658) fusion protein (human), Q92831; assay: pull-down; MBP or MBP-PCAF (60 μg) rebound on amylose agarose beads with 60 μg His-tagged PCAF; 50 mM Tris pH8.0, 150 mM sodium chloride, 5 mM ß-ME, 3 mM EDTA, 2 h at 4°C; washes with 0.03% Triton X-100; SDS-PAGE, coomassie blue; both purified; settings: remark: other sources report otherwise
[4] = target: T1, PCAF HAT domain (amino acids 493-658), …; assay: cross-linking; 1 mg/ml protein in 50 mM HEPES pH7.5, 50 mM sodium sulfate; DSS at 5X molar concentration, 1 h at room temperature; SDS-PAGE, coomassie blue; both purified; settings: remark: other sources report otherwise

| binding [1] | binding [2] | binding [3] | binding [4] | Binder |
| --- | --- | --- | --- | --- |
| binds | – | – | – | shortened PCAF HAT domain (amino acids 496-658) (domain or fragment, UniProt Q92831 496-658) FHVVGNSLNQKPNKKILMWLVGLQNVFSHQLPRMPKEYITRLVFDPKHKTLALIKDGRVIGGICFRMFPSQGFTEIVFCAVTSNEQVKGYGTHLMNHLKEYHIKHDILNFLTYADEYAIGYFKKQGFSKEIKIPKTKYVGYIKDYEGATLMGCELNPRIPYTE |
| – | binds | binds | binds | PCAF HAT domain (amino acids 493-658), His-tagged, Q92831 493-658 (domain or fragment) VIEFHVVGNSLNQKPNKKILMWLVGLQNVFSHQLPRMPKEYITRLVFDPKHKTLALIKDGRVIGGICFRMFPSQGFTEIVFCAVTSNEQVKGYGTHLMNHLKEYHIKHDILNFLTYADEYAIGYFKKQGFSKEIKIPKTKYVGYIKDYEGATLMGCELNPRIPYTE |
